{"source": "paper PMC9005695", "binders": {"B1": {"name": "His-Rtt106 (protein, UniProt P40161 1-455)", "chain": "MSKLFLDELPESLSRKIGTVVRVLPSSLEIFEELYKYALNENSNDRSGRHKKPRIDVSSDLLKTDEISETNTIFKLEGVSVLSPLRKKLDLVFYLSNVDGSPVITLLKGNDRELSIYQLNKNIKMASFLPVPEKPNLIYLFMTYTSCEDNKFSEPVVMTLNKENTLNQFKNLGLLDSNVTDFEKCVEYIRKQAILTGFKISNPFVNSTLVDTDAEKINSFHLQCHRGTKEGTLYFLPDHIIFGFKKPILLFDASDIESITYSSITRLTFNASLVTKDGEKYEFSMIDQTEYAKIDDYVKRKQMKDKSMSEELKAKSKSKGQATDGTADQPSILQEATRQMQDEKKAGVFSDDDEENDQNFEAESDLSDGSGQESSDGAEDGEEAEEDDEEDDEEEDKKGQSALNRDNSFASINGQPEQELQYKEFKEPLELEDIPIEIDNDDDEDDEDGSGVEYD"}}, "molecular_target": "T1, GST-Pdr3 (S. cerevisiae) (UniProt P33200)", "T1 sequence": "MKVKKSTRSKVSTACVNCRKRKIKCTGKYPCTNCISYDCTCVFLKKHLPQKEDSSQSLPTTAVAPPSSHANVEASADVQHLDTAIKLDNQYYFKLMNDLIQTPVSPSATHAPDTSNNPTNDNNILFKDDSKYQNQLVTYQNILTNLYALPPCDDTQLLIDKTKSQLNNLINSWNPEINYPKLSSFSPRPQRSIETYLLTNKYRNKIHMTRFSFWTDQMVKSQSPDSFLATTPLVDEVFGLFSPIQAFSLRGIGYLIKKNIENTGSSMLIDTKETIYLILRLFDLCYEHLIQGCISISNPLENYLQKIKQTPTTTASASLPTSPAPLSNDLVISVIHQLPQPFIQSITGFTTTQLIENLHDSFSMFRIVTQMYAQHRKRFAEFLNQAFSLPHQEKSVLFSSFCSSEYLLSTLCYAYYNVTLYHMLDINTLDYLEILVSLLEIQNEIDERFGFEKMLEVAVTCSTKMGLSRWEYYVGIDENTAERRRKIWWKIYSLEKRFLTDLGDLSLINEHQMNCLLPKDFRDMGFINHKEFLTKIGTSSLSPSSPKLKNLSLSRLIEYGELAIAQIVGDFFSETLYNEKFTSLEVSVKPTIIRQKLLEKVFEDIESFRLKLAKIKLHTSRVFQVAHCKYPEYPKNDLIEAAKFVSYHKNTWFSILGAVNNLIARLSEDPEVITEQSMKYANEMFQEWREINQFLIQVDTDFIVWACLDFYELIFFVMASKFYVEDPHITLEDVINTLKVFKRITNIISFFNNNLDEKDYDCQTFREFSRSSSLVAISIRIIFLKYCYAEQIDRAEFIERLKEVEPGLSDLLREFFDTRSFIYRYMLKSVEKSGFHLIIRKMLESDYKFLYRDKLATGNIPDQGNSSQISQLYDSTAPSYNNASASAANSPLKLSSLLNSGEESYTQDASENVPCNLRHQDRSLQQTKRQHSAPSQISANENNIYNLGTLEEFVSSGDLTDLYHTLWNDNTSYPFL", "experiment": "pull-down; GST fusions bound to glutathione-Sepharose beads incubated with purified SWI/SNF or purified His-Rtt106; Binding buffer (PBS, 0.1% Triton X-100, 1 mM MgCl2, 1 mM DTT, 10% glycerol), 4 °C, 2 h; western blot with anti-FLAG (Snf6-3FLAG) or anti-His; both purified", "note": "No constants are given. Whether binding was seen depends on the method and setting. Tags and fused reporters may be left off the sequences shown.", "data": [{"binder": "B1", "values": [{"measurement": "binding", "result": "no binding"}]}]}
